Measured values as given in PMC8583962.
Results are given in words; binding and its absence hold for the method and conditions named. In cells and extracts the contact can be indirect.

Biological target: T1, NAA10 (endogenous) (human (endogenous in HEK293, HeLa, HAP1)), P41227
T1 chain: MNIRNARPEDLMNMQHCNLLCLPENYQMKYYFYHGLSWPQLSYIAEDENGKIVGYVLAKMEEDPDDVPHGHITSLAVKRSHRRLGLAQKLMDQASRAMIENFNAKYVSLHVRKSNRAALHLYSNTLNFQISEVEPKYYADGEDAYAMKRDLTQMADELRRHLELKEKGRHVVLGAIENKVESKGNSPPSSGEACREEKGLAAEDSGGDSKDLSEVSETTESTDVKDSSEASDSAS
Experiment: co-IP; IP of endogenous NAA10 with an anti-NAA10 antibody from HAP1-WT and HAP1-FIH-KO lysates on Dynabeads, washed three times in IPH lysis buffer; rabbit IgG as control IP; immunoblot for NAA15 and FIH
Conditions: remark: other sources report otherwise

binding: no binding
B1: factor inhibiting HIF-1α (FIH), Q9NWT6 1-349 (enzyme)
chain: MAATAAEAVASGSGEPREEAGALGPAWDESQLRSYSFPTRPIPRLSQSDPRAEELIENEEPVVLTDTNLVYPALKWDLEYLQENIGNGDFSVYSASTHKFLYYDEKKMANFQNFKPRSNREEMKFHEFVEKLQDIQQRGGEERLYLQQTLNDTVGRKIVMDFLGFNWNWINKQQGKRGWGQLTSNLLLIGMEGNVTPAHYDEQQNFFAQIKGYKRCILFPPDQFECLYPYPVHHPCDRQSQVDFDNPDYERFPNFQNVVGYETVVGPGDVLYIPMYWWHHIESLLNGGITITVNFWYKGAPTPKRIEYPLKAHQKVAIMRNIEKMLGEALGNPQEVGPLLNTMIKGRYN
